{
  "sequences": {"note": "By UniProt entry, the sequences of proteins in these tests, tags left out. Where a name states a change or a piece, a line headed by the entry shows the natural chain unless it says otherwise.", "UniProt Q9EP86": "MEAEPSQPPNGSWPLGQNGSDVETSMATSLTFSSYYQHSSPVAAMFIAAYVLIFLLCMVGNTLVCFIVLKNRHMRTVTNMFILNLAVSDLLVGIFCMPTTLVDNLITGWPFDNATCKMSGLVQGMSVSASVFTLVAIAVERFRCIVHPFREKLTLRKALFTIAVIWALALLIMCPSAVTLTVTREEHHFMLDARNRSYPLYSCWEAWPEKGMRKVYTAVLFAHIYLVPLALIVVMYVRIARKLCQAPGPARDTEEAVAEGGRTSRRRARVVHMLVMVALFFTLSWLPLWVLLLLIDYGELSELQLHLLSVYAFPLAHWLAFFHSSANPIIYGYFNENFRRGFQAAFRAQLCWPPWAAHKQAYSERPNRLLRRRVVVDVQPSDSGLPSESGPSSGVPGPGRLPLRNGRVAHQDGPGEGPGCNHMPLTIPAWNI"},
  "source": "patent US7276339B2",
  "about": "(H. Lundbeck A/S, priority 1998, dated 2007)",
  "target": "T1, NPFF1 (SNORF2) (Rattus norvegicus, UniProt Q9EP86)",
  "T1 construct": "linearized plasmids or PCR products containing the complete coding region of the genes; expressed in transfected cells; host or cells: Xenopus laevis oocytes injected with synthetic RNA (T7 transcripts)",
  "assay": "Voltage-clamp electrophysiology, Xenopus oocytes injected with SNORF2 (NPFF1) and chimeric Gαq/z RNA",
  "format": "cell-based",
  "conditions": "concentration not given",
  "description": "Oocytes were harvested from Xenopus laevis and injected with mRNA transcripts as previously described (Quick and Lester, 1994; Smith et al., 1997). […] Three to eight hours prior to recording, oocytes were injected with 500 pg Gαq/z mRNA in order to observe coupling to Ca^++ activated Cl^− currents. Dual electrode voltage clamp (Axon Instruments Inc.) was performed using 3 M KCl-filled glass microelectrodes having resistances of 1-2 Mohm. Unless otherwise specified, oocytes were voltage clamped at a holding potential of −80 mV. During recordings, oocytes were bathed in continuously flowing (1-3 ml/min) medium containing 96 mM NaCl, 2 mM KCl, 1.8 mM CaCl2, 1 mM MgCl2, and 5 mM HEPES, pH 7.5 (ND96). Drugs were applied either by local perfusion from a […] glass capillary tube fixed at a distance of 0.5 mm from the oocyte, or by switching from a series of gravity fed perfusion lines.\nHeterologous expression of GPCRs in Xenopus oocytes has been widely used to determine the identity of signaling pathways activated by agonist stimulation (Gundersen et al., 1983; Takahashi et al., 1987). Activation of the phospholipase C (PLC) pathway is assayed by applying test compound in ND96 solution to oocytes previously injected with mRNA for the mammalian receptor and observing inward currents at a holding potential of −80 mV. […]",
  "note": "At least one compound was matched to its structure with a doubt left.",
  "data": [
    {"smiles": "CC(C)C[C@H](NC(=O)[C@H](CCCCN)NC(=O)[C@H](CCCN=C(N)N)NC(=O)[C@H](C)NC(=O)[C@H](CO)NC(=O)[C@H](CCCCN)NC(=O)[C@H](CCCN=C(N)N)NC(=O)[C@H](C)NC(=O)CNC(=O)[C@@H](NC(=O)[C@H](Cc1ccccc1)NC(=O)CNC(=O)CNC(=O)[C@@H](N)Cc1ccccc1)[C@@H](C)O)C(=O)N[C@@H](C)C(=O)N[C@@H](CC(N)=O)C(=O)N[C@@H](CCC(N)=O)C(=O)O", "note": "[nociceptin]", "values": [
      {"measurement": "activation of oocytes injected with SNORF2 synthetic RNA", "result": "failed to activate"}
    ]}
  ]
}
